Here are results for 42 sequences from publication PMC7819943, “Rice protein-binding microarrays: a tool to detect cis-acting elements near promoter regions in rice”.

Sequences of proteins named here, by UniProt entry; tags and fusion partners are left off.
UniProt Q0JBA9, entry or part of it: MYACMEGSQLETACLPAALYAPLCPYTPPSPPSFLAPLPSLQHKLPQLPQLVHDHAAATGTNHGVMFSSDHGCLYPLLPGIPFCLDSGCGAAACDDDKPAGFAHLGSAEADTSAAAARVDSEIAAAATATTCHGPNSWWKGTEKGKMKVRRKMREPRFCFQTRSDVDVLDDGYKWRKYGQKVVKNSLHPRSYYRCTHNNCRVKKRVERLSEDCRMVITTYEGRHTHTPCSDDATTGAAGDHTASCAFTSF

This is one part of the list.

The test has as its target OsWRKY34 (Oryza sativa, UniProt Q0JBA9 1-250). In words: protein-binding microarray (RPBM); PBS, 2% BSA, 51.3 ng/ul salmon testes DNA, 50 uM zinc acetate, 200 nM TF, 25 C, 1 h; high values mean tight binding. The following applies: protein: recombinant; tags: N-terminal polyhistidine and DsRed monomer fusion (pET32a); label: CyDye5-dUTP incorporated in the synthesized complementary strand; 3' TTTTT single-stranded linker to array surface; dsDNA, one strand shown. The essentials:
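Per-feature fluorescence intensity (arbitrary units), read on an Axon 4000B scanner, is the binding signal. Transcription factors carrying an N-terminal polyhistidine tag and DsRed fusion were expressed in E. coli BL21-CodonPlus and purified on Ni–NTA. A custom Agilent array, made double-stranded by primer extension with Cy5-dUTP and blocked with 2% BSA, was incubated with 200 nM protein in PBS, 2% BSA, salmon testes DNA and 50 µM zinc acetate at 25 °C for 1 h and then washed.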
“ACCCCAGCAACCAACCTCTCGTCTCCGCCGCTTCGCCCTCCGGAGTCACCTAGTGCAG”: the binding signal is 15500 fluorescence intensity (a.u.).
Next, “TGGACTCTTCTTTTCTTTTTTTTTCTTTTTCTCCGATTAACGGAGTCACCTAGTGCAG”: 9490 fluorescence intensity (a.u.).
Turning to “GCCCATGAGCTTGCCTCGTCTCCGGCGGCTACGCGCTGCCCGGAGTCACCTAGTGCAG”, the binding signal is 8590 fluorescence intensity (a.u.).
Next, “TGCGGATAGACTTCCACAACTGCCATGTCACCGCGATGTTCGGAGTCACCTAGTGCAG”: 8390 fluorescence intensity (a.u.).
For “TTGTTTCTGTTTCAGGTATGAGGTCATCATTCTCCAGTATCGGAGTCACCTAGTGCAG”, the binding signal is 8240 fluorescence intensity (a.u.).
Consider “CTCTGCCCGGACGCCTACAGCTACCCCAAGGACGACCAGACGGAGTCACCTAGTGCAG”, for which the binding signal was 9390 fluorescence intensity (a.u.).
Then “TGTGTAGAAATTCTCTTTCCTCATTTATTCATTTGCTATACGGAGTCACCTAGTGCAG”, with 9310 fluorescence intensity (a.u.); and “TCTCGAAAGCTTTGTGTCGGTTTGACTTTCGATATTTTCTCGGAGTCACCTAGTGCAG”, with 8600 fluorescence intensity (a.u.); and “TCACACGTCTCTCTCTCTCTCTCTTTAACCACCGCCTTCCCGGAGTCACCTAGTGCAG”, with 10200 fluorescence intensity (a.u.).
Take “TTTTGGTTGGCTTCTCGATCGTTGGAGGGGTGTTTTTTTGCGGAGTCACCTAGTGCAG”: the binding signal is 15600 fluorescence intensity (a.u.).
For the sequence “TTTACATTCATTTCTCTATACGAGCATGGGCCGCACTATACGGAGTCACCTAGTGCAG”, the binding signal is 9830 fluorescence intensity (a.u.).
As to “GTGGGAGGCGGTGGTGGTGGTGAAGGAGGTGGCCTTGGAGCGGAGTCACCTAGTGCAG”, the binding signal is 11400 fluorescence intensity (a.u.).
On to “TTTCCCTGTCTACAGTACAACCTCGTGCGCTTCATCAATTCGGAGTCACCTAGTGCAG”, for which the binding signal was 8340 fluorescence intensity (a.u.).
Turning to “TTTATTATTTTTCTGGATCGGATTGCCACGTAAGCGCCACCGGAGTCACCTAGTGCAG”, the binding signal was 8610 fluorescence intensity (a.u.).
On to “AACGTCTATCTTTTCATTTCGTATTTTTTTTTGGCTTTGACGGAGTCACCTAGTGCAG”, for which the binding signal was 11800 fluorescence intensity (a.u.).
Next, “ACAAACAATTTCTATCAAAGTTTATCGCTTTTTTGTCCTTCGGAGTCACCTAGTGCAG”: 8200 fluorescence intensity (a.u.).
With “TTTAATCGTCCGTCCGTTGCAAGTCATCAGCTGCAGCCTCCGGAGTCACCTAGTGCAG”, the binding signal was 11500 fluorescence intensity (a.u.).
As for “CGTTAGATTCCCCTACCAGTCAATCTGTCATCTCTTTACCCGGAGTCACCTAGTGCAG”, the binding signal is 8790 fluorescence intensity (a.u.).
Consider “TGATGATTTTGTATATTTATGTTCTTCCATCCATACCTTACGGAGTCACCTAGTGCAG”, for which the binding signal was 9670 fluorescence intensity (a.u.).
Next, “CCTTCACCACTGCAACTTGCTCATCACCCACACACCAAGCCGGAGTCACCTAGTGCAG”: 12200 fluorescence intensity (a.u.); “CGGTTACTTCGCATCTAGTTCTTGTTAGGTCTCCGGCTCTCGGAGTCACCTAGTGCAG”: 9760 fluorescence intensity (a.u.).
For the sequence “TCCACTCCCACTGACCACACCAGGGTTTACGATTCCGGTCCGGAGTCACCTAGTGCAG”, the binding signal is 8470 fluorescence intensity (a.u.).
Consider “ACTCGCACTTATTCTGTTATTCACATGGCATTGGTTGCGTCGGAGTCACCTAGTGCAG”, for which the binding signal was 12400 fluorescence intensity (a.u.).
Next, “ATTCTCAAAATCGAATTTGTTTTTATATTTCCCTTACTGTCGGAGTCACCTAGTGCAG”: 14700 fluorescence intensity (a.u.); “ATAATTATTATTTATTTTCTTGTGACTTAGTTTATCACTACGGAGTCACCTAGTGCAG”: 9000 fluorescence intensity (a.u.); “CCATCATTTTTCTCACTTCAAAATATATTTTTTTCATGAACGGAGTCACCTAGTGCAG”: 9420 fluorescence intensity (a.u.).
With “CTATTTTACTATTTATTTTTGTTAGTTCTACTGCCAGTTTCGGAGTCACCTAGTGCAG”, the binding signal is 9000 fluorescence intensity (a.u.).
In the case of “CATGCCACCGCCGCGCTGCCCGTGCCCTCCATGTCCAAGACGGAGTCACCTAGTGCAG”, the binding signal was 8150 fluorescence intensity (a.u.).
Then “TCTCTATCCAGGTAGCGCCCAAATAAATCAGTTACTACACCGGAGTCACCTAGTGCAG”, with 8550 fluorescence intensity (a.u.); and “ACGCTCTCCACTCCACAGTCCACACCTCCTGTCACACTGACGGAGTCACCTAGTGCAG”, with 9420 fluorescence intensity (a.u.); and “CTAATTTTTTCTATGGTTTGTTCCTATGTGCTCCTAAGTGCGGAGTCACCTAGTGCAG”, with 10500 fluorescence intensity (a.u.).
Then “TGTAGTTGTGAGTGTATTCGTTTGTACTGTTTTTTTTATACGGAGTCACCTAGTGCAG”, with 11900 fluorescence intensity (a.u.).
Regarding “TGATGAGCCGCCGCCGCCGCATCGTCGTCGTCTCCCGATGCGGAGTCACCTAGTGCAG”, the binding signal was 8430 fluorescence intensity (a.u.).
“CTTTCTGTAGAGCCTGATATGTTACCTGCAATGGATTTGTCGGAGTCACCTAGTGCAG”: the binding signal was 8050 fluorescence intensity (a.u.).
Regarding “CCCACCCGTGTCCATAGAAATTCCTCTATCCTTGATTGATCGGAGTCACCTAGTGCAG”, the binding signal is 9770 fluorescence intensity (a.u.).
In the case of “ATATTCCTAGCATTTTTCATGTTTCTTCGTTTTAACACCACGGAGTCACCTAGTGCAG”, the binding signal was 8420 fluorescence intensity (a.u.).
Next, “AATCGGATTCTTTTTTTTTCTTTTTTTCACCCAATTTTTTCGGAGTCACCTAGTGCAG”: 10800 fluorescence intensity (a.u.); “ATTGTAATTAACTAATCATCATGCGTGTGCATTGTATTTACGGAGTCACCTAGTGCAG”: 8450 fluorescence intensity (a.u.); “GAGTGGGCTTTGAGGTTGTATATGTCAATACTGCATGAAACGGAGTCACCTAGTGCAG”: 8520 fluorescence intensity (a.u.).
In the case of “GCCCTTGCTACATCGTCCCTATAAGCTGAAGCAGTCGATACGGAGTCACCTAGTGCAG”, the binding signal is 8870 fluorescence intensity (a.u.).
Take “AATGCTTATTTTACTATCTTATTTTCCTTTTTTTTCCAATCGGAGTCACCTAGTGCAG”: the binding signal is 8090 fluorescence intensity (a.u.).
With “ATTGTTGTGGGCCCCGCGTGTCATCATCATTGCTGTCCTCCGGAGTCACCTAGTGCAG”, the binding signal was 8170 fluorescence intensity (a.u.).
